PubChem BioAssay AID504786 | Drosophila RNAi Screening Center – 2011
The screen tested about 21,000 reagents; this is a random part of those that have a named target and a result. 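Primary screen; positive scores mean lost reporter signal, so the sign may be inverted from the usual convention.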 Names joined by + are all predicted targets of the reagent. Not all columns of the deposit are shown. Reagent sequences are not shown.

Aim: 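Positive regulators of HIF-driven reporter output in Drosophila cells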 (primary screen)
Cell system: Drosophila S2 cells with a stable HIF luciferase reporter
Reagents: long dsRNA against Drosophila genes, about 0.2 µg dsRNA per well of a 384-well plate
Timing: three days of knock-down, then 20 h of DFO before reading
Treatment: desferrioxamine (DFO) at 100 µM, an iron chelator that mimics hypoxia, for 20 h
Measured: 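HIF reporter luminescence in cells given 100 µM DFO for 20 h, using the mouse ldh-a hypoxia-response element, scored as per-plate z-scores; higher means greater loss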
Direction: z-score: higher = stronger loss of HIF reporter signal

| gene | dsRNA | z-score, replicate 1 | z-score, replicate 2 | z-score, replicate 3 |
| --- | --- | --- | --- | --- |
| CG5191 (GeneID 42431) | DRSC15733 | -0.3 | -1.2 | – |
| CG5191 (GeneID 42431) | DRSC15734 | 0.6 | 0 | – |
| Art6 (GeneID 41699) | DRSC16583 | -0.4 | -0.3 | – |
| Atg8b (GeneID 42132) | DRSC14501 | -0.2 | 0.9 | – |
| MED23 + CG3700 | DRSC04406 | 0.2 | 0.4 | – |
| MED23 + CG3700 | DRSC04407 | -0.2 | -0.3 | – |
| Ir76b (GeneID 40198) | DRSC10831 | -0.3 | -0.6 | – |
| CG13457 (GeneID 39649) | DRSC10004 | -0.3 | 0.3 | – |
| CG13810 (GeneID 38278) | DRSC08344 | -0.3 | -0.5 | – |
| MME1 (GeneID 33987) | DRSC02714 | -0.1 | -0.5 | – |
| CG12877 (GeneID 43333) | DRSC14565 | -0.1 | -0.1 | – |
| serp (GeneID 40150) | DRSC11035 | -0.3 | -0.4 | – |
| serp (GeneID 40150) | DRSC11036 | -0.2 | -0.3 | – |
| Rab27 (GeneID 31103) | DRSC18567 | -0.3 | -0.7 | – |
| Mau2 (GeneID 41830) | DRSC15550 | 0 | 0.2 | – |
| Jheh1 (GeneID 251984) | DRSC06529 | -0.3 | -0.3 | – |
| CG33255 (retired record) + hpRNA:CR32205 + hpRNA:CR32207 | DRSC09617 | 0.2 | 0.4 | – |
| Sas-6 (GeneID 43555) | DRSC15061 | -0.3 | -0.3 | – |
| CadN (GeneID 35070) | DRSC03286 | -0.2 | -0.5 | – |
| htk (GeneID 32877) | DRSC20029 | – | 3.7 | – |
| htk (GeneID 32877) | DRSC20031 | -0.1 | 0.5 | – |
| CG42750 (GeneID 35090) | DRSC02458 | -0.2 | 0.1 | 4.3 |
| CG42750 (GeneID 35090) | DRSC03019 | 0.5 | -0.2 | – |
| CG42750 (GeneID 35090) | DRSC03024 | -0.2 | 0.4 | – |
| CG40005 (retired record) + cta | DRSC03763 | -0.6 | -0.2 | – |
| CG10154 (GeneID 39509) | DRSC09707 | -0.3 | -0.4 | – |
| CG10333 (GeneID 35112) | DRSC02036 | 1 | 2.3 | – |
| Ube3a (GeneID 39266) | DRSC10600 | 0 | -0.2 | – |
| Hsp70Aa + Hsp70Ab | DRSC21246 | 0.6 | 0.9 | – |
| Chmp1 (GeneID 40036) | DRSC10401 | -0.3 | -0.5 | – |
| Paip1 (GeneID 36913) | DRSC07302 | -0.2 | -0.8 | – |
| CG6961 + CG18259 | DRSC19799 | -0.3 | -0.4 | – |
| CG6961 + CG18259 | DRSC20019 | -0.2 | -0.5 | – |
| ACXC (GeneID 34689) | DRSC00846 | -0.2 | -0.2 | – |
| CG12419 (retired record) (GeneID 41218) | DRSC14513 | -0.1 | 0 | – |
| obst-H (GeneID 39681) | DRSC10935 | -0.1 | 0.8 | – |
| obst-H (GeneID 39681) | DRSC10940 | -0.2 | -0.7 | – |
| CG32236 (GeneID 249170) | DRSC08117 | -0.5 | 0.8 | – |
| CG40498 (GeneID 3354890) | DRSC07786 | -0.2 | -0.2 | – |
| cn (GeneID 35724) | DRSC07594 | -0.2 | 1.4 | – |
| aux (GeneID 40527) | DRSC12161 | -0.2 | 0.1 | – |
| Cp7Fb (GeneID 31785) | DRSC18034 | -0.2 | -0.4 | – |
| CG3108 (GeneID 31506) | DRSC18280 | -0.3 | -0.7 | – |
| Dcr-1 (GeneID 42693) | DRSC15646 | -0.3 | -0.1 | – |
| CG2017 (GeneID 40733) | DRSC12293 | -0.4 | -0.4 | – |
| CG3520 (GeneID 37708) | DRSC04383 | -0.3 | -0.4 | – |
| AspRS (GeneID 36420) | DRSC05914 | 0.1 | -0.2 | – |
| IntS3 (GeneID 3355010) | DRSC21215 | 0.3 | 0.5 | – |
| I-3 (GeneID 33068) | DRSC20479 | 0 | -0.5 | – |
| Stam (GeneID 34505) | DRSC03444 | 2.2 | 2.6 | – |
| CG11368 (GeneID 50397) | DRSC17778 | -0.3 | -0.4 | – |
| Wnt5 (GeneID 32838) | DRSC20300 | -0.1 | 0.1 | – |
| Saf-B (GeneID 42958) | DRSC16167 | 0.2 | 0.6 | – |
| CG10948 (GeneID 39459) | DRSC09806 | -0.3 | -0.3 | – |
| CG12106 (GeneID 31856) | DRSC17805 | -0.1 | -0.5 | – |
| CG18661 (GeneID 50438) | DRSC02690 | -0.2 | -0.2 | – |
| Rbp4 (GeneID 41668) | DRSC16818 | -0.1 | -0.4 | – |
| CG2444 (GeneID 32121) | DRSC19846 | -0.3 | -0.8 | – |
| Jon99Ciii (GeneID 43543) | DRSC16859 | 4.3 | 2.4 | – |
| hpRNA:CR18854 + IP3K1 | DRSC02218 | -0.2 | -0.6 | – |
| CG14324 (GeneID 42119) | DRSC14803 | -0.3 | 0.1 | – |
| ATP8A (GeneID 36488) | DRSC05421 | -0.2 | -0.2 | – |
| ATP8A (GeneID 36488) | DRSC06643 | 0.2 | 0.3 | – |
| ATP8A (GeneID 36488) | DRSC06644 | -0.2 | -0.6 | – |
| CG42523 (GeneID 8674082) | DRSC00251 | 0.1 | 0 | – |
| CG31937 (GeneID 326177) | DRSC00514 | -0.2 | -0.2 | – |
| Cpr49Ad (GeneID 36349) | DRSC07284 | -0.3 | -0.7 | – |
| CG11404 (GeneID 40474) | DRSC11656 | -0.2 | -0.2 | – |
| CG3726 (GeneID 31525) | DRSC18320 | -0.2 | -0.2 | 1.7 |
| Daao1 (GeneID 36128) | DRSC06131 | -0.2 | -0.4 | – |
| CG11147 (GeneID 33803) | DRSC02129 | -0.1 | -0.3 | – |
| ebi (GeneID 33212) | DRSC00816 | -0.3 | -0.6 | – |
| Oseg2 (GeneID 38282) | DRSC08343 | -0.4 | -0.4 | – |
| CG34370 (GeneID 5740565) | DRSC03913 | -0.6 | -0.1 | – |
| CG34370 (GeneID 5740565) | DRSC04142 | -0.2 | -0.5 | – |
| CG34370 (GeneID 5740565) | DRSC04143 | -0.3 | -0.4 | – |
| CG34370 (GeneID 5740565) | DRSC04144 | -0.2 | -0.5 | – |
| CG11085 (GeneID 32213) | DRSC19374 | -0.2 | 1.5 | – |
| Fdx2 (GeneID 38530) | DRSC08306 | -0.2 | -0.2 | – |
| CG8441 (GeneID 36792) | DRSC07180 | -0.2 | -0.1 | – |
| dl (GeneID 35047) | DRSC03520 | -0.3 | -0.4 | – |
| dl (GeneID 35047) | DRSC03521 | -0.2 | 0.2 | – |
| Jheh2 (GeneID 37181) | DRSC06530 | -0.2 | -0.1 | – |
| Naa30A (GeneID 31079) | DRSC18583 | 1.1 | 2 | – |
| Arl8 (GeneID 40961) | DRSC16334 | -0.3 | -0.4 | – |
| nudC (GeneID 39879) | DRSC11096 | 1.2 | -0.3 | – |
| nudC (GeneID 39879) | DRSC11097 | -0.4 | -0.8 | – |
| Gr22f (GeneID 117349) | DRSC00076 | -0.5 | -0.5 | – |
| CG7763 (GeneID 36235) | DRSC07043 | -0.3 | 0.3 | – |
| Set2 (GeneID 32301) | DRSC19765 | 0.7 | 0.3 | – |
| HipHop (GeneID 40047) | DRSC10734 | -0.3 | -0.7 | – |
| CG5498 (GeneID 40250) | DRSC11608 | -0.3 | -0.4 | – |
| CG5504 (GeneID 48844) | DRSC04701 | -0.2 | -0.5 | – |
| yellow-b (GeneID 35005) | DRSC03639 | -0.3 | -0.4 | – |
| Nup153 (GeneID 32630) | DRSC19904 | 5.5 | 2.9 | 2.8 |
| CG10470 (GeneID 35174) | DRSC02061 | -0.4 | -0.3 | – |
| Tspo (GeneID 33231) | DRSC00533 | -0.3 | -0.1 | – |
| Klp98A (GeneID 43310) | DRSC16724 | 0 | 0.4 | – |
| CG6885 (GeneID 40041) | DRSC10740 | -0.3 | -0.1 | – |
| Trmt61 (GeneID 43170) | DRSC14888 | -0.7 | 0.5 | – |
| pAbp (GeneID 37070) | DRSC07659 | -0.3 | -0.5 | – |
| l(3)07882 (GeneID 46201) | DRSC15882 | -0.2 | 0.4 | – |
| DopEcR (GeneID 38539) | DRSC08529 | -0.3 | -0.5 | – |
| Tim23 (GeneID 3355096) | DRSC21240 | -0.4 | -0.3 | – |
| Esyt2 (GeneID 42929) | DRSC16082 | -0.3 | 0 | – |
| CG30154 (GeneID 246487) | DRSC05889 | 0.3 | -0.3 | – |
